Measured values: publication PMC12591160, “Polyadenylation Complex CFII Recognizes Downstream Cis‐element for Pre‐mRNA Polyadenylation Through Interaction with an RNA‐Binding Protein in Arabidopsis”
Results are given in words; binding and its absence hold for the method and conditions named. In cells and extracts the contact can be indirect. Some binding calls cover weakened binding; strength is not graded here. Sequences can lack the tags named with a protein.

T1: PCFS4-MYC (PCFS4 with 12× MYC, native promoter, in PCFS4-MYCres transgenic plants) (Arabidopsis thaliana) (UniProt Q0WPF2)
T1 sequence: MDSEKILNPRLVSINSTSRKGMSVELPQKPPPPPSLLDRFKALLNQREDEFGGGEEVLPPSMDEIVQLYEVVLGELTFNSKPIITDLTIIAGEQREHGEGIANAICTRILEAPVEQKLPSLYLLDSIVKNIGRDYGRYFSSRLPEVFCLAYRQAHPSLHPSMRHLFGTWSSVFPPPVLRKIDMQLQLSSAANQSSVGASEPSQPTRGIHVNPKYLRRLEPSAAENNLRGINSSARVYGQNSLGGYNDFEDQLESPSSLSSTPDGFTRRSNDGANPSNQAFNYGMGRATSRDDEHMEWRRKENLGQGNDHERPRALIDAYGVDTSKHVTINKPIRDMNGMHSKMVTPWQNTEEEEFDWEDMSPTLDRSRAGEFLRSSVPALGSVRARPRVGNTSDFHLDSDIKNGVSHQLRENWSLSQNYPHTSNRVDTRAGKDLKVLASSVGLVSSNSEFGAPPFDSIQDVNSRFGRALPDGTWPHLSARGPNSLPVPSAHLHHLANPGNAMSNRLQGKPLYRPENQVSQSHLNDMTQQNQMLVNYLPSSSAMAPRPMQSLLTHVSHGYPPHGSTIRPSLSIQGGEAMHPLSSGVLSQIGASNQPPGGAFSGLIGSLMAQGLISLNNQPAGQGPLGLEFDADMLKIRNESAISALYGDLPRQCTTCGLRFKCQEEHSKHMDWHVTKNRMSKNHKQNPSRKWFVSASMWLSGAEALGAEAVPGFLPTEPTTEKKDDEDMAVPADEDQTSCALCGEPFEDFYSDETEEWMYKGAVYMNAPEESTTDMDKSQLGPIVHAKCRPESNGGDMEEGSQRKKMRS

T2: PCFS4 (endogenous, Arabidopsis plants) (Arabidopsis thaliana (endogenous in Arabidopsis plants)) (UniProt Q0WPF2)
T2 sequence: T1 sequence

B1: FPA (endogenous, Arabidopsis plants) (protein, UniProt Q8LPQ9 1-901)
chain: MALSMKPFRADDSGFQSNNLWVGSLTPETTESDLTELFGRYGDIDRITVYSSRGFAFIYYRHVEEAVAAKEALQGANLNGSQIKIEYARPAKPCKSLWVGGIGPNVSKDDLEEEFSKFGKIEDFRFLRERKTAFIDYYEMDDALQAKSMNGKPMGGSFLRVDFLRSQAPKKEQWAGSYDNRNGNMNHKPQYPHSYEDFKGDVQPSKVLWIGFPPTATQCNDEQILHNAMILFGEIERVKSYPSRNFALVEFRSAEEARQCKEGLQGRLFNNPRIKIMYSNDELPPEQDDTSFYSGMKRSRTDMFNNDPSFVSSPHSTGIPGSMRPLRGTNERSYNGAEYNDVVGKEPNWRRPSANGTGILPSPTGPGILPSPAQGTRRPMRSNPDSWEGYDPAQLVRESKRTRRDGSVDGFTPMGVDERSFGRGSVAARPIRGPPDSDHIWRGMIAKGGTPVCCARCVPMGKGIETKLPEVVNCSARTDLNMLAKHYAVAIGCEIVFFVPDREEDFASYTEFLRYLSSKDRAGVAKLDDGTTLFLVPPSDFLTDVLQVTRQERLYGVVLKLPPPAVPVTASYRQESQSNPLHYMDQARDSPANASHSLYPPRENYIRGAPEHLTAASKPSVSEPLRIPNNAAPQAGVSLTPELLATLASILPATSQPAAPESHQPMSGPSTVVSTAHQSNGLYNGEAPSQAWKRGPQTVHDASNQSFQQYGNQYTPAGQLPPPPSRYPPASNNPNYTSGMVHGNMQYQSQSVNMPQLSPLPNMPHNNYSMYTQGSSNHPVSQPMVQQYQPEASMPNQNYGPIPSYQQANFHGVTTNQAQNLNPSQFQAAMQPPADKANLEPQNQALRLQPMISGDGQGTTDGEVDKNQRYQSTLQFAANLLLQIQQKQQQQSSGTPAGQGP
B2: CLPS3-FLAG (CLPS3 with 3× FLAG, native promoter, in CLPS3-FLAGres transgenic plants) (protein, UniProt Q9SR06 1-444)
chain: MAYGGPSMNPPALSGAVPGSANLKQVKLERESELRIEVSEEPLRLRVVNGTAEIFGSELPPEIWRTFPPRMKFAVFTWYGATIEMDGVTETDYTADETPMVSYINVHAILDARRRFAKASTSNDPESSQGPRVIVVGPTDSGKSTLTKMLLSWAAKQGWRPTFVDLDVGQGSITIPGSIAAAPIEMPLDPVEGFPLDMALVYYYGHASPNMNVELYKALVKELAQVLEKQFVGNPESRAAGMVINTMGWIEGIGYELLLHAIDTFNASVVLVLGQEKLFSRLKDVLRSKSNVDVVKLHKSGGVVARVKEVRKRSRNFKIQEYFYGLSKELSPYANTSSFSDLQVFRIGGGPQAPKSALPAGSTSVSNPLRVTPVNIDDRDLLHSVLAVSYAEEPDQIISSNVSGFVYVTEVNVQKKKITYLAPSPGTLPSKLLVAGSLAWLESV

Experiments:
[1] = target: T1, PCFS4-MYC (PCFS4 with 12× MYC, native promoter, in PCFS4-MYCres transgenic plants) (Arabidopsis thaliana); assay: co-IP; total protein extracts of 12-day-old transgenic Arabidopsis plants (PCFS4-MYC or CLPS3-FLAG; wild type as control) on anti-MYC or anti-FLAG M2 magnetic beads, 2 h at 4 °C, 150 mM NaCl, 0.1% Triton X-100, pH 7.4; blots with the indicated antibodies
[2] = target: T2, PCFS4 (endogenous, Arabidopsis plants) (Arabidopsis thaliana (endogenous in Arabidopsis plants)); assay: as above

| Binder | binding [1] | binding [2] |
| --- | --- | --- |
| B1 | binds |  |
| B2 |  | binds |
